# Data published in US20090286252A1 (NEW YORK UNIVERSITY, published 2009).
# Amino acid sequences for entries named in this document (tags omitted). A change or cut given only in a name is not applied to a line headed by its entry.
# UniProt P10828: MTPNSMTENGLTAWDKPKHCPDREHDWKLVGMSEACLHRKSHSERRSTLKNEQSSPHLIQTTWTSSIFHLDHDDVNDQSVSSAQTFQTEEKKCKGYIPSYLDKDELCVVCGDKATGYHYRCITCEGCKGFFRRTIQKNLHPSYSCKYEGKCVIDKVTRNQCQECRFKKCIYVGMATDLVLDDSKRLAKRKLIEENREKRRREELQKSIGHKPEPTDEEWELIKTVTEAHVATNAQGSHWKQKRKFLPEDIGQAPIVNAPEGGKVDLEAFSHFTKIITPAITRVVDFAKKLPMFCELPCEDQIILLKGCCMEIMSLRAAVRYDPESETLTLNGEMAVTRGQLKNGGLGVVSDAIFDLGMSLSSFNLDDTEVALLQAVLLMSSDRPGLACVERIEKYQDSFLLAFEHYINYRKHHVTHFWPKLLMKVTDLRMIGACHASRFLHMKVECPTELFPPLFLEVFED
# UniProt P62195: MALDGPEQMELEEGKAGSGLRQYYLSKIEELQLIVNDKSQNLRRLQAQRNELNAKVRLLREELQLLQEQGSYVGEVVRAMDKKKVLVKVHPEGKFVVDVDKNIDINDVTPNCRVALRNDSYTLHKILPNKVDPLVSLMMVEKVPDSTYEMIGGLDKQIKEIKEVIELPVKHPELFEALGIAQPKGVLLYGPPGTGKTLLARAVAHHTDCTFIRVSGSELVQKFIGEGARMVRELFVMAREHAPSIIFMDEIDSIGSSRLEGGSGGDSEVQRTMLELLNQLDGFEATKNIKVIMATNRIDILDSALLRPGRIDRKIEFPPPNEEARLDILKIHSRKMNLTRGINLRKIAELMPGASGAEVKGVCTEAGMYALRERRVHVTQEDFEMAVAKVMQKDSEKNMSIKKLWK
# UniProt Q13352: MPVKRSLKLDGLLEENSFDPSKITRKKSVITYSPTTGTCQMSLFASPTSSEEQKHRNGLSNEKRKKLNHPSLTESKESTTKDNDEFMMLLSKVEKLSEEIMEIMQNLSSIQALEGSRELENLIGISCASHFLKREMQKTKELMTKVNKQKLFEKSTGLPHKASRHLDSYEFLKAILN
# No constants are given. Whether binding was seen depends on the method and setting. Some binding calls cover weakened binding; strength is not graded here.
# Experiments:
# [1] = target: T1, LexA-cTRα LBD (chicken, UniProt P0A7C2 1-202; P04625 120-408, limits assumed); test: yeast two-hybrid, β-galactosidase, positive control prey (FIG. 1)
# T1 construct: also called LexA-TR LBD; LexA-TR
# T1 sequence (looked up): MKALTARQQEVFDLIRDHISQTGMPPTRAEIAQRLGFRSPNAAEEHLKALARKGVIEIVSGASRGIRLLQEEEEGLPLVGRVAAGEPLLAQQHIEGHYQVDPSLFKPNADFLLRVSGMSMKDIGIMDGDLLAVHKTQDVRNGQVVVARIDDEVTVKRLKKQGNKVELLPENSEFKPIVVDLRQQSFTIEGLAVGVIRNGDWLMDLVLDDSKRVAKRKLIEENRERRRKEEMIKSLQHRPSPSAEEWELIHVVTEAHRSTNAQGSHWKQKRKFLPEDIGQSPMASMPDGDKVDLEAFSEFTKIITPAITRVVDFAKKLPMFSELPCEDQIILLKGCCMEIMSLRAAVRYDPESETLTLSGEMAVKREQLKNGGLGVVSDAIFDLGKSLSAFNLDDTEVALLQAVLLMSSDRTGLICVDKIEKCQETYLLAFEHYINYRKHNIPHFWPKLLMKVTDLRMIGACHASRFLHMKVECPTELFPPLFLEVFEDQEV
# [2] = target: T1, LexA-cTRα LBD; test: yeast two-hybrid, β-galactosidase induced by T3 (FIG. 1 legend)
# [3] = target: T1, LexA-cTRα LBD; test: yeast two-hybrid (data not shown)
# [4] = target: LexA-hTRβ LBD (human) (UniProt P0A7C2+P10828); test: yeast two-hybrid (data not shown)
# [5] = target: T2, LexA-hRXRα LBD (human, UniProt P0A7C2 1-202; P19793 198-462, limits assumed); test: yeast two-hybrid, β-galactosidase (Table 1); little if any interaction without ligand
# T2 construct: also called LexA-RXR
# T2 sequence (looked up): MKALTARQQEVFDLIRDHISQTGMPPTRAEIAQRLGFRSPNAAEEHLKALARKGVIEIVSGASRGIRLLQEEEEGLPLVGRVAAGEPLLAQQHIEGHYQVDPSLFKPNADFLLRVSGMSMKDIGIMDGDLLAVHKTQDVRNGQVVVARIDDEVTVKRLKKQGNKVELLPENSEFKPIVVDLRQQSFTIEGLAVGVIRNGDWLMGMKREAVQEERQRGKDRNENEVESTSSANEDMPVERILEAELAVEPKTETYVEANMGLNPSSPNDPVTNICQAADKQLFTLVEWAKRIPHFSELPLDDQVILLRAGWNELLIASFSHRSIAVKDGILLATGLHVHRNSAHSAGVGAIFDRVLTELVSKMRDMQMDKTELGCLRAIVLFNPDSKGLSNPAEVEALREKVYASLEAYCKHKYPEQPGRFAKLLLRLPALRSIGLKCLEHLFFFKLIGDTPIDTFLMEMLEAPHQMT
# [6] = target: T1, LexA-cTRα LBD; test: as above
# [7] = target: T1, LexA-cTRα LBD; test: yeast two-hybrid, β-galactosidase; little interaction without T3 (FIG. 1)
binding [1],binding [2],binding [3],binding [4],binding [5],binding [6],binding [7],Substance
binds,,,,,,,B42-Trip 1 (from UniProt P62195 1-406)
,binds,binds,binds,binds,binds,binds,NRIF3 fused to the B42 activation domain (from UniProt Q13352 1-177)
